# The whole screen tested about 310,000 compounds, of which about 17,000 (5.5%) were called active. This list was built around the results that the source calls inconclusive (neither active nor inactive); the mix of calls is not that of the screen. Calls follow the shape of the dose curve; as a rule, active = well fitted inhibition curve with a large enough effect; inconclusive = small, poorly fitted or top-dose-only effect, or effect the other way; inactive = no such curve, though single readings can be large or run the other way. Where the call is inconclusive, the potency comes from a doubtful curve fit.
# The chains behind the UniProt entries cited, without tags or fusion partners. Where a name states a change or a piece, a line headed by the entry shows the natural chain unless it says otherwise.
# UniProt P51450: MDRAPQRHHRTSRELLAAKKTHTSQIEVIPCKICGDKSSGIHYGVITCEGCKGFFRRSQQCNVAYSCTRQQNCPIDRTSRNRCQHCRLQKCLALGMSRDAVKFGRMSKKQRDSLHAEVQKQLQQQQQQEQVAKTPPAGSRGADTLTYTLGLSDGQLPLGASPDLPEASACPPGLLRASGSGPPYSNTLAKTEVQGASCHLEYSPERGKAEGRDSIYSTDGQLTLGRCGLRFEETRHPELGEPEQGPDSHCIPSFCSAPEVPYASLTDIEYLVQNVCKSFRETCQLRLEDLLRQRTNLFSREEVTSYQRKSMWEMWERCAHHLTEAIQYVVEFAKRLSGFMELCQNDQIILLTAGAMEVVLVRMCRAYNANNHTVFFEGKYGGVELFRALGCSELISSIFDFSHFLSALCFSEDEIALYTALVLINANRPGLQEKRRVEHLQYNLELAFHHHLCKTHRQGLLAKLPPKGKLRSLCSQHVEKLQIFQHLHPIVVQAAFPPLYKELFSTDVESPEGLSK
# Target: Nuclear receptor ROR-gamma (Mus musculus) (UniProt P51450)
# Assay: qHTS for inhibitors of ROR gamma transcriptional activity; also: nearly all actives have a fitted effect of over 60% in size
# Conditions: Drosophila S2 Gal4-RORgamma UAS-luciferase reporter, 20 h; activity change, negative = inhibition: at 53.6 µM (top of the series)
# Method in brief: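 Stable Schneider cell line, Gal4 DNA-binding domain fused to ROR gamma, UAS-luciferase. Cmpd 1 hr RT → CuSO4 700 uM final → 20 hr RT → luciferase reagent 10 min → luminescence.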
# % is scaled to controls: 0 for no effect and ±100 for the full control effect; potency is read from the fitted curve at half-maximal effect.
SMILES,Potency,"activity change, negative = inhibition"
c1csc(-c2ccc(N3CCOCC3)nn2)c1,"inconclusive: 10 µM [inhibitor, partial curve, poor fit]",
O=C(OCCN1C(=O)c2cccc3c(N4CCOCC4)ccc(c23)C1=O)c1ccc(Cl)cc1Cl,,inactive: 34.5%
O=C(Nc1ccc(Oc2cccnc2)cc1)c1ccccc1F,"inconclusive: 11.2 µM [activator, partial curve]",
COC(=O)c1sccc1N/N=C/c1cccc(OC)c1O,"inconclusive: 10 µM [inhibitor, single point]",
COc1ccc(OC)c(N2C(=O)CC(Cc3ccc(Cl)cc3)C2=O)c1 (stereo not given),"inconclusive: 35.5 µM [activator, single point]",
Cc1ccc(C(=O)N2CCN(c3ccccc3Cl)CC2)cc1[N+](=O)[O-],"inconclusive: 11.2 µM [activator, single point]",
O=C(CN1CCC(n2nnc3cc(C(F)(F)F)ccc32)CC1)NCc1cccs1,,inactive: 6.24%
C1CC1Cc1noc(CN2CCN(C3C4CC5CC(C4)CC3C5)CC2)n1 (stereo not given),,inactive: 5.64%
O=C(O)c1ccc(N2C(=O)/C(=C\c3ccccc3)N=C2c2ccccc2)cc1,"inconclusive: 10 µM [activator, partial curve]",
CCOC(=O)Cc1csc(NC(=O)CSc2ccc(Br)cc2)n1,"inconclusive: 35.5 µM [activator, single point]",
O=C(CO/N=C/c1ccccc1Cl)N1CCCc2ccccc21,"inconclusive: 12.6 µM [activator, single point]",
CCn1nnnc1SCCSc1nnnn1CC,"inconclusive: 1.78 µM [activator, partial curve]",
Oc1ccccc1/C=N/Nc1nn[nH]n1,"inconclusive: 12.6 µM [inhibitor, single point]",
Cc1ccc(C(=O)CSc2n[nH]c(-c3ccco3)n2)cc1C,"inconclusive: 35.5 µM [activator, single point]",
CCOc1ccc(C(=O)Nc2nnc(NC(=S)Nc3ccccc3)s2)cc1,active: 0.355 µM,
CN(C)C(=S)NC(=NCc1ccc([N+](=O)[O-])cc1)c1ccccc1,active: 20 µM,
COc1cc(CNCCNC(=O)c2cccs2)cc(OC)c1OC,"inconclusive: 11.2 µM [activator, single point]",
CCc1ccc(Oc2coc3cc(OCC(=O)Nc4cc(C)ccc4C)ccc3c2=O)cc1,active: 25.1 µM,
O=C(C[n+]1ccc(-c2nnc3n2CCCCC3)cc1)c1ccc(Cl)cc1,,inactive: 8.04%
COc1cccc(Nc2n[nH]c(=S)s2)c1,"inconclusive: 35.5 µM [inhibitor, single point]",
O=C(NCc1ccccc1Cl)C1CCCN(c2ncnc3c2nc2n3CCCCC2)C1 (stereo not given),"inconclusive: 12.6 µM [activator, partial curve]",
Fc1ccc(-c2cnc3n2CCCCC3)cc1,active: 11.2 µM,
O=C(CNC(=O)c1ccccc1F)NC1CC1,"inconclusive: 15.8 µM [activator, single point]",

# Some of the entries above in another layout:
SMILES	Potency	activity change, negative = inhibition
C1CC1Cc1noc(CN2CCN(C3C4CC5CC(C4)CC3C5)CC2)n1 (stereo not given)		inactive: 5.64%
O=C(CO/N=C/c1ccccc1Cl)N1CCCc2ccccc21	inconclusive: 12.6 µM [activator, single point]	

# Following part

SMILES,Potency,"activity change, negative = inhibition"
CCOc1cc(CNCCO)cc(Br)c1OCc1cccs1,"inconclusive: 35.5 µM [activator, single point]",
Cc1cc(C(=O)OCC(=O)Nc2c(F)cccc2F)c(C)n1-c1ccccc1,"inconclusive: 5.62 µM [activator, single point]",
COc1ccc(CC(=O)Nc2ccc(C(=O)Nc3nccs3)cc2)cc1OC,"inconclusive: 35.5 µM [activator, partial curve, poor fit]",
Cc1ccc(NC(=S)N(C)C(c2ccccc2)c2ccccc2)cc1C,active: 3.55 µM,
Cc1ccc(C2CC(=O)NC(SCc3ccccc3)=C2C#N)o1 (stereo not given),"inconclusive: 14.1 µM [inhibitor, single point]",
COc1cc(-c2nnc3sc(-c4ccco4)nn23)cc(OC)c1OC,"inconclusive: 2.51 µM [inhibitor, full curve, poor fit]",
CN(C(=O)c1ccc(COc2ccccc2Br)o1)c1ccccc1,"inconclusive: 35.5 µM [inhibitor, single point]",
COc1ccc(C(c2nnnn2Cc2cccs2)N2CCC(C(N)=O)CC2)c(OC)c1 (stereo not given),"inconclusive: 12.6 µM [activator, partial curve]",
CN(Cc1ccccc1)C(=O)CC(c1ccccc1)c1cc(Cl)ccc1O (stereo not given),"inconclusive: 28.2 µM [activator, single point]",
Cc1ccc(-c2noc(CCC(=O)N(C)c3ccccc3C)n2)cc1,,inactive: -41.5%
C[C@H](NC(=O)c1nc[nH]c1C(=O)NCC(=O)OCc1ccccc1)c1ccccc1,active: 14.1 µM,
CC(C)c1ccc(O)c(NC(=O)c2cccnc2)c1,"inconclusive: 15.8 µM [activator, single point]",
COc1ccccc1NC(=O)C1CCCN(c2cc(C)nc3ncnn23)C1 (stereo not given),"inconclusive: 4.47 µM [activator, single point]",
CC(=O)N1CCN(Cc2nc3cc(NC(=O)c4ccccc4)ccc3n2C)CC1,"inconclusive: 25.1 µM [inhibitor, single point]",
C/C(=N\NC(=O)c1ccccn1)C12CC3CC(CC(C3)C1)C2,"inconclusive: 14.1 µM [inhibitor, single point]",
COCC(C)n1c(C)cc(C(=O)COC(=O)c2oc3ccccc3c2C)c1C (stereo not given),"inconclusive: 11.2 µM [activator, partial curve]",
CCOc1cc(CNCc2ccccc2)ccc1OCC(=O)NC1CCCCC1,,inactive: 19.6%
O=C(NCc1cccc(Cl)c1)c1cccc(OC2CCN(C(=O)C3CC3)CC2)c1,"inconclusive: 10 µM [activator, single point]",
CCOCCCNCc1cc(Br)ccc1OCc1ccccc1,"inconclusive: 17.8 µM [activator, single point]",
CCOC(=O)/C(=C\c1ccc(Cl)cc1)c1nc2sc(C)c(C)c2c(=O)[nH]1,"inconclusive: 14.1 µM [inhibitor, single point]",
COc1ccc2nc(NC(=O)CSc3nnnn3C3CCCCC3)sc2c1,"inconclusive: 15.8 µM [activator, single point]",
Cc1ccc(-c2nnn(CCC(=O)NC(C)(C)C)n2)cc1,"inconclusive: 2.24 µM [inhibitor, partial curve, poor fit]",

# — PubChem BioAssay AID2551 (National Center for Advancing Translational Sciences (NCATS), 2010)
